In PubChem BioAssay AID2685 (National Center for Advancing Translational Sciences (NCATS), 2010):
The list shows a part of the results. These are further read-outs of the screen, such as a control signal, another cell line or another target. No call is given for them. Most of these compounds were active or inconclusive in the main read-out, so they are no random draw. Potencies come from curve fits of mixed quality, noted in brackets.

Experiment: qHTS Assay for Lipid Storage Modulators in Drosophila S3 Cells;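 on cell number change: cells counted by Cell Tracker Red CMTPX staining in the red channel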
Conditions: BODIPY lipid droplet fluorescence, 18-24 h; for cell number change: measured here: cell count max response, cells fed with added oleic acid
Outline: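 Drosophila S3 cells loaded with oleic acid (400 uM, as added) and compounds at several concentrations; lipid droplets imaged by 488-nm laser-scanning cytometry, 500–530 nm intensity and object ratio to cell channel. Percent activity normalized to 20 uM Triacsin C.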

[1] = measured here: lipid fluorescence (Fed channel) AC50, cells fed with added oleic acid
[2] = measured here: cell number channel AC50, cells fed with added oleic acid

Row | Compound | AC50 [1] | cell number change [%] | AC50 [2]
1 | O=C(c1ccccc1)C1CCN(C(=O)c2ccco2)CC1 | 29.1 µM [rising, single point] | – | –
2 | Cc1ccccc1C(=O)NCCc1nnc(SCC(=O)Nc2nc(-c3ccccc3)cs2)n1C | 10.3 µM [falling, partial curve] | -47 | 11.6 µM [falling, partial curve, poor fit]
3 | Cc1cccc(NC(=O)CNC(=O)c2sc3ccccc3c2Cl)n1 | 9.2 µM [rising, partial curve] | 20.9 | –
4 | O=S(=O)(NCc1cc(-c2ccccc2)no1)c1ccccc1Cl | – | -24.4 | 3.66 µM [rising, single point]
5 | C/C(=N\NC(=O)C1COc2ccccc2O1)c1ccc(C)o1 (stereo unspecified) | – | 42.2 | 29.1 µM [rising, single point]
6 | CSCCC(NC(=O)c1cccc(S(=O)(=O)N2CCOCC2)c1)c1nc2ccccc2[nH]1 (stereo unspecified) | 29.1 µM [rising, single point] | -13 | –
7 | O=C(NCCOC(=O)c1ccccc1)c1ccccc1 | – | 16 | –
8 | Cc1onc(-c2ccccc2Cl)c1C(=O)N1CCCC1 | 16.4 µM [rising, single point] | 13.3 | –
9 | CCOCCCNc1nc2c(C)cccn2c(=O)c1/C=C1\SC(=S)N(C(C)CC)C1=O (stereo unspecified) | 0.366 µM [falling, full curve] | – | –
10 | C/C(=N\NC(=O)c1nc2ccccn2c1C)c1cccc([N+](=O)[O-])c1 | 5.17 µM [rising, partial curve, poor fit] | 4.05 | 3.66 µM [rising, single point]
11 | O=S(=O)(NCCc1c[nH]c2ccccc12)c1ccccc1 | – | 31.7 | 32.6 µM [rising, single point]
12 | CSc1nc2ccc(Br)cc2[nH]1 | 16.4 µM [falling, partial curve, poor fit] | -37.3 | 18.4 µM [falling, single point]
13 | CCc1ccc(N2CC(C(=O)NCC(C)(C)N3CCOCC3)CC2=O)cc1 (stereo unspecified) | 0.291 µM [falling, full curve, poor fit] | -8.56 | –
14 | O=C(CSc1nnc(NCc2ccccc2)s1)c1ccco1 | – | 7.01 | –
15 | CCN1CCN(CC(=O)Nc2cc3c(cc2C(C)=O)OCO3)CC1 | 3.26 µM [falling, single point] | -1.2 | –
16 | COc1ccc(C)cc1NC(=O)c1cc(S(=O)(=O)N2CCCCC2)ccc1N1CCOCC1 | 29.1 µM [falling, single point] | 4.52 | –
17 | COc1ccccc1-c1nc2c(c(SCC(=O)N3CCCCC3)n1)Cc1c(CO)cnc(C)c1O2 | – | -43.8 | 10.3 µM [falling, partial curve]
18 | O=C(COc1ccc(Cl)cc1Cl)Nc1ccc2nc3n(c(=O)c2c1)CCCC3 | 0.82 µM [falling, single point] | -1.99 | –
19 | COc1cc(/C=N/NC(=O)CCN2CCN(Cc3ccccc3)CC2)cc(OC)c1OC | – | 41.6 | 8.2 µM [rising, partial curve]
20 | CCCN(C(=O)C1CSC2(C)CCC(=O)N12)c1c(N)n(Cc2ccccc2)c(=O)[nH]c1=O (stereo unspecified) | – | -77.4 | 29.1 µM [falling, single point]
21 | CCNS(=O)(=O)c1ccc(CCC(=O)N2CCN(c3cc(Cl)ccc3C)CC2)cc1 | 23.1 µM [falling, single point] | -40.2 | 11.6 µM [falling, partial curve, poor fit]

Copied from the entries so far for reference:
Row | Compound | AC50 [1] | cell number change [%] | AC50 [2]
11 | O=S(=O)(NCCc1c[nH]c2ccccc12)c1ccccc1 | – | 31.7 | 32.6 µM [rising, single point]
12 | CSc1nc2ccc(Br)cc2[nH]1 | 16.4 µM [falling, partial curve, poor fit] | -37.3 | 18.4 µM [falling, single point]
13 | CCc1ccc(N2CC(C(=O)NCC(C)(C)N3CCOCC3)CC2=O)cc1 (stereo unspecified) | 0.291 µM [falling, full curve, poor fit] | -8.56 | –
14 | O=C(CSc1nnc(NCc2ccccc2)s1)c1ccco1 | – | 7.01 | –

(list continues)

Row | Compound | AC50 [1] | cell number change [%] | AC50 [2]
22 | COc1ccc(CCNC(=O)C2CCN(S(=O)(=O)c3ccc(OC)c(OC)c3)CC2)cc1 | 6.51 µM [rising, single point] | 41.2 | 14.6 µM [rising, single point]
23 | COc1ccc(/C=N/Nc2ccccn2)c(OC)c1OC | 29.1 µM [rising, single point] | 89.2 | –
24 | COc1ccc(C)cc1NC(=O)C1CCCN(S(=O)(=O)c2cccnc2)C1 (stereo unspecified) | 10.3 µM [rising, partial curve] | 12.5 | –
25 | O=C(COc1nncc2ccccc12)Nc1ccc(Br)cc1F | – | -22.9 | –
26 | Cc1ccc(OCC(=O)Nc2ccc(C)c(S(=O)(=O)N3CCCCC3)c2)c([N+](=O)[O-])n1 | 0.00461 µM [rising, full curve, poor fit] | 9.35 | –
27 | O=C(COc1ccccc1)N1CCN(C(=O)c2ccc([N+](=O)[O-])cc2)CC1 | 29.1 µM [rising, partial curve, poor fit] | – | –
28 | CCOC(=O)c1ccc(Nc2c(OCC)c(=O)c2=O)cc1 | 3.66 µM [rising, single point] | – | –
29 | CCC(C)NC(=O)CSc1ccc(Cl)cc1 (stereo unspecified) | 29.1 µM [rising, single point] | 21.4 | –
30 | CCOCCNC(=O)c1ccc2c3c(cccc13)CC2 | – | -9.49 | –
31 | CN(C)Cc1nc2c([nH]1)c(=O)n(C)c(=O)n2C | 3.66 µM [falling, full curve] | -27.1 | 2.59 µM [falling, full curve, poor fit]
32 | NS(=O)(=O)c1cccc(NC(=O)CC2(CC(=O)O)CCCC2)c1 | – | 2.7 | –
33 | CC1(C)Cc2cccc(C(=O)Nc3ccc(Cl)cc3)c2O1 | 6.51 µM [falling, single point] | -12.3 | 0.291 µM [falling, partial curve]
34 | COc1ccc(-c2noc(N3CCC(C(=O)N4CCN(c5ccccn5)CC4)CC3)n2)cc1 | 20.6 µM [falling, partial curve, poor fit] | -30.4 | 13 µM [falling, partial curve]
35 | O=C(c1cc([N+](=O)[O-])ccc1N1CCCCC1)N1CCCC1 | – | 9.11 | –
36 | CC1=Nc2ccccc2/C1=C\c1sc(Nc2ccc(C)cc2)nc1O | 1.84 µM [rising, partial curve, poor fit] | -54.1 | 29.1 µM [falling, single point]
37 | CC(C)c1ccc(OCc2ccc(C(=O)NN3CCN(C)CC3)o2)cc1 | – | -35 | –
38 | Cc1cccc(NC(=O)c2ccc(N3C(=O)C4CCCCC4C3=O)cc2)c1C (stereo unspecified) | 29.1 µM [rising, single point] | 26.9 | –
39 | C=CCNC(=S)NCc1ccc(CNC(=S)NCC=C)cc1 | 3.66 µM [falling, partial curve] | -5.97 | –
40 | COCCNC(=O)c1cnn2c(C(F)(F)F)cc(-c3ccc(C)cc3)nc12 | 0.0058 µM [falling, full curve, poor fit] | -1.34 | –
41 | CCC(=O)n1nc(-c2cccnc2)nc1NCc1ccc(F)cc1 | – | -15.5 | –
42 | CC(C)(C)c1ccc(C(=O)NCC(=O)NNC(=O)c2ccccc2O)cc1 | 1.3 µM [falling, full curve] | -27.6 | –

Row | Compound | AC50 [1] | cell number change [%] | AC50 [2]
43 | CC1(C)Cc2ccccc2-c2nnc(-c3ccc4ccccc4n3)n21 | 18.4 µM [falling, partial curve, poor fit] | – | –
44 | CC(C)(C)OC(=O)N1CCN(c2ccc([N+](=O)[O-])cc2)CC1 | 0.092 µM [rising, single point] | -23 | –
45 | O=C(NNC(=O)c1ccccc1OCc1ccc(F)cc1)c1ccncc1 | – | – | 0.058 µM [rising, full curve, poor fit]
46 | CC(C)(C)OC(=O)N1CCC(Cc2cc(-c3cccc(Br)c3)no2)(C(=O)O)CC1 | – | 2.69 | –
47 | CCN(CC)CCCN(Cc1cc2cc3c(cc2[nH]c1=O)OCCO3)C(=O)Nc1ccc(F)cc1 | – | -33.7 | 0.82 µM [falling, full curve, poor fit]
48 | O=C(O)c1ccc2c(=O)n3c(nc2c1)/C(=C/c1ccc(OC(F)F)cc1OC(F)F)CC3 | – | 12.8 | –
49 | O=C(NCc1cccnc1)Nc1ccc(Br)cc1 | – | – | 1.84 µM [falling, partial curve]
50 | CC1=CCC(C(=O)O)(C(=O)N/N=C/c2cccs2)C(c2ccc([N+](=O)[O-])cc2)C1 (stereo unspecified) | – | 18.7 | –
51 | CC(C)CN(C(=O)COC(=O)CSc1ccccc1)c1c(N)n(Cc2ccccc2)c(=O)[nH]c1=O | 16.4 µM [falling, single point] | – | –
52 | COc1ccc(N2CCN(S(=O)(=O)c3ccc4c(c3)CC(C)N4C(=O)C3CC3)CC2)cc1 (stereo unspecified) | 6.51 µM [rising, single point] | 17.9 | –
53 | Cc1c(Cl)cccc1NC(=O)CNC(=O)C1CCN(C(=O)Nc2ccccc2)CC1 | 0.00461 µM [rising, full curve, poor fit] | -0.937 | –
54 | CC(NC(=O)CN1CCOCC1)c1ccccc1 (stereo unspecified) | 18.4 µM [rising, single point] | 6.35 | –
55 | COc1ccc2c(COC(=O)CCS(=O)(=O)c3ccc(C)cc3)cc(=O)oc2c1 | – | -8 | –
56 | Cc1ccc(N(C(=O)c2snc(C(N)=O)c2N)C(C(=O)NCc2ccccc2)c2ccncc2)c(C)c1 (stereo unspecified) | 0.461 µM [rising, single point] | -19.8 | –
57 | Cc1cc(C)c(OCC(=O)NCC(C)(C)N2CCOCC2)c(C)c1 | – | 12.9 | 0.184 µM [falling, full curve, poor fit]
58 | CCOc1cc(C2C3=C(CC(C)(C)CC3=O)N(CCCOC)C3=C2C(=O)CC(C)(C)C3)ccc1O | 16.4 µM [rising, single point] | 1.4 | –
59 | CC12CCC(C(=O)NNc3ccc([N+](=O)[O-])cc3)(OC1=O)C2(C)C (stereo unspecified) | 1.3 µM [rising, partial curve] | -9.82 | –
60 | COc1cc(OC)cc(-c2nc(-c3ccc(Br)cc3)no2)c1 | – | -7.5 | –
61 | Cc1ccc(-n2c(SCC(=O)Nc3ccc(C(=O)O)cc3)nnc2-c2ccncc2)cc1 | – | -22.7 | –
62 | COc1ccc(N2C(=O)CC(N3CCC(c4nc5ccccc5[nH]4)CC3)C2=O)cc1 (stereo unspecified) | – | 39.4 | 16.4 µM [rising, single point]

Laid out differently: 2 of the compounds above.

| Row | Compound | AC50 [1] | cell number change [%] | AC50 [2] |
| --- | --- | --- | --- | --- |
| 45 | O=C(NNC(=O)c1ccccc1OCc1ccc(F)cc1)c1ccncc1 | – | – | 0.058 µM [rising, full curve, poor fit] |
| 51 | CC(C)CN(C(=O)COC(=O)CSc1ccccc1)c1c(N)n(Cc2ccccc2)c(=O)[nH]c1=O | 16.4 µM [falling, single point] | – | – |
